Reference: PubChem BioAssay AID493014 (National Center for Advancing Translational Sciences (NCATS), 2011)
The other results are listed elsewhere or left out. The main result of the screen is listed elsewhere. These columns were measured beside it and carry no call. The list favours compounds with an active or inconclusive main result. Potencies come from curve fits of mixed quality, noted in brackets.

Assay: qHTS Assay to Find Inhibitors of Chronic Active B-Cell Receptor Signaling
Settings: ABC-DLBCL IkBa-CBG/CBR reporter, luminescence ratio (green luciferase fused to IkBa over red control in TMD8 lymphoma cells), 4 h
How it was run: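 Doxycycline induced both beetle luciferases in TMD8 lymphoma cells; IKK-driven degradation limits the IkappaBalpha-fused green signal, while red luminescence normalises for cell number and nonspecific effects. Compounds tested up to 46 uM, 4 hrs.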

[1] = measured here: CBR red luminescence, cell number
[2] = measured here: IkBa-CBG green luminescence

Structure (SMILES)	AC50 [1]	AC50 [2]
O=C(Nc1ccc(Oc2ccc(C(F)(F)F)cn2)c(Cl)c1)C1CC1	22.4 µM [rising, single point]	–
CCN(CC)c1ccc(S(=O)(=O)N2CCOCC2)cc1NC(=O)CSc1nncn1C	29.1 µM [rising, single point]	–
COc1ccc(S(=O)(=O)CCC(=O)NCCc2cccc(C)c2)cc1	0.164 µM [rising, full curve, poor fit]	–
CCSC1=C(C#N)C2(CCCC2)C(C#N)=C(N)N1	20 µM [falling, single point]	–
O=C(C1CCCN1C(=O)c1cccs1)N1CCc2ccccc21 (stereo not given)	35.5 µM [rising, single point]	–
O=C1NC2(CCCCO2)CO1 (stereo not given)	35.5 µM [falling, single point]	–
Cc1cc(Br)ccc1NC(=O)CN1C(=O)C2C3CC(c4ccccc4)C(C3)C2C1=O (stereo not given)	10 µM [falling, partial curve, poor fit]	–
O=c1[nH]c2ccccc2n2c(-c3ccccc3)nnc12	9.2 µM [falling, single point]	20.6 µM [rising, partial curve, poor fit]
CCN(CC)C(=O)/C=C/c1ccc(OC)c(S(=O)(=O)N2CCCCC2)c1	14.1 µM [rising, partial curve, poor fit]	–
Cc1cc2ncn(CCC(=O)NC3CCCC3)c2cc1C	11.2 µM [rising, partial curve, poor fit]	–
COC(=O)N/N=C/c1ccc(-c2cc(Cl)ccc2Cl)o1	1.3 µM [rising, partial curve, poor fit]	–
O=C(Nc1nc2ccccc2s1)Nc1ccc(F)cc1F	4.47 µM [falling, full curve]	–
O=C1N=C(N2CCC(Cc3ccccc3)CC2)S/C1=C/c1cn[nH]c1-c1ccccc1	15.8 µM [falling, partial curve, poor fit]	–
Cc1nnc2c(NC3CCCC3)nc3ccccc3n12	7.08 µM [falling, partial curve, poor fit]	–
CC(=O)Nc1ccc(C)cc1	5.17 µM [falling, partial curve, poor fit]	–
O=C(COC(=O)c1ccccc1C(=O)c1ccc(Cl)c([N+](=O)[O-])c1)NC1CC1	7.94 µM [falling, partial curve, poor fit]	5.01 µM [rising, full curve, poor fit]
Cc1ccc(NC(=O)c2cc(C)on2)cc1	3.98 µM [rising, partial curve, poor fit]	–
Cc1nn(Cc2ccccc2)c(Cl)c1/C=C/C(=O)OC(C)C(=O)N1CCCC1 (stereo not given)	5.62 µM [rising, single point]	–

Full records, quoted from the list. Order of values: AC50 [1] | AC50 [2]
O=c1[nH]c2ccccc2n2c(-c3ccccc3)nnc12 in the list: 9.2 µM [falling, single point] | 20.6 µM [rising, partial curve, poor fit]
O=C(Nc1nc2ccccc2s1)Nc1ccc(F)cc1F in the list: 4.47 µM [falling, full curve] | –
